Assay results from publication PMC12040169 (PLOS Biology, 2025).
The list shows a part of the results.

Each compound was assayed on T1, CTL2-GFP (C. trachomatis L2/434/Bu, GFP-expressing). Details: bulk GFP, single well; 28.5 h, 10 µM; inhibitor.
T1 construct: L2/434/Bu, GFP-expressing
Parameters: species or system HeLa; Intracellular C. trachomatis growth in HeLa cells, bulk GFP fluorescence relative to DMSO

Structure (SMILES) | % of control remaining [%]
CN1CCC[C@H]1C(=O)Nc1ccc2ncccc2c1 [CBK159825] | 124.385
Cc1[nH]ncc1CN1CCCC(c2cc3ccccc3cn2)C1 (stereo not shown) [CBK285029] | 79.6138
COc1cccc(N2C(=O)CC(N3CCN(Cc4ccc5c(c4)OCO5)CC3)C2=O)c1 (stereo not shown) [CBK074411] | 131.95
CCOC(=O)c1nc(N)c2c(CC#N)nn(C)c2n1 [CBK023254] | 117.537
O=C(/C=C/c1ccc(Cl)cc1)Nc1nnn[nH]1 [CBK265468] | 100
CN1C2CCC1CC(OC(=O)CCN1CCOCC1)C2 (stereo not shown) [CBK261465] | 101.356
O=C(C1CCC1)N1CC(n2nc(-c3ccccc3)ccc2=O)C1 [CBK284624] | 165.591
CC(=O)N[C@H]1[C@H](Oc2ccc3ccccc3c2)O[C@@H]2COC(C)(C)O[C@H]2[C@@H]1O [CBK091644] | 135.709
O=c1c2cc(Cl)ccc2sc2ncccc12 [CBK008118] | 138.673
Cc1nn(Cc2cccc(C(=O)O)c2)c(C)c1Br [CBK286950] | 124.404
Cc1cccc(NS(=O)(=O)c2cc(C(=O)NCc3ccccn3)ccc2C)c1 [CBK268767] | 132.991
COc1ccc2[nH]cc(CCNC(=O)c3ccc([N+](=O)[O-])c(C)c3)c2c1 [CBK269426] | 23.9421
CC(C)OCC(O)Cn1c(NC2CCCCC2)nc2c1c(=O)[nH]c(=O)n2C (stereo not shown) [CBK140893] | 103.815
COC(=O)C#CCNc1cc(Cl)ccc1Cl [CBK025852] | 41.0546
CC(=O)Nc1ccc(OCCO)cc1 [CBK149724] | 120.317
CC(=O)Nc1ccc(N/C=C(/C#N)c2nc(-c3ccc([N+](=O)[O-])cc3)cs2)cc1 [CBK262377] | 95.3325
O=C1CSC2(C(=O)N(Cc3cccc(C(F)(F)F)c3)c3ccccc32)N1c1ccccc1 (stereo not shown) [CBK092392] | 84.5278
OCc1ccc(-c2cc(NCc3cccs3)n3nccc3n2)cc1 [CBK037046] | 117.85
N#CCCCN1CCC(Oc2nccnc2OCc2cccc3ccccc23)CC1 [CBK161571] | 119.248
C/C(=C/C(=O)NCc1ccc(Cl)cc1)C(=O)O [CBK286954] | 120.179
O=c1c2cc(OCc3ccc(Cl)cc3)ccc2nc2n1CCC2 [CBK287977] | 139.662
O=S(=O)(NC1CCCCC1Oc1ccccc1)c1ccc(Cl)cc1 (stereo not shown) [CBK264697] | 92.8332
FC(F)(F)Oc1cccc(-c2cncc(NCc3ccncc3)n2)c1 [CBK065926] | 165.099
Cc1cc(NC(=O)CN(C)C(=O)c2ccc(-n3cc(Br)cn3)cc2)no1 [CBK305575] | 113.38
Cc1cccn2c(=O)cc(CN3CCC(c4cnn(C)c4)CC3)nc12 [CBK305806] | 121.9
COc1cc(C(F)(F)F)c(-c2ncn[nH]2)cn1 [CBK006362] | 100

Structure (SMILES) | % of control remaining [%]
COCc1ccc(C(=O)N2CCC(c3cc4cnccc4[nH]3)CC2)cc1 [CBK283448] | 109.757
COc1ccc(CC(=O)Nc2nc(OCC(F)(F)F)cnc2-c2ccc(Cl)cc2Cl)cc1 [CBK145359] | 104.129
Clc1ncccc1OCCOc1ccccc1 [CBK003888] | 105.973
COc1ccc(-c2c(C)nn3c(=O)c(Cc4ccccc4)c(C)[nH]c23)cc1 [CBK266951] | 165.564
CCc1c(C)nn(-c2ccccc2Br)c1-c1ccccc1 [CBK016757] | 94.3155
COc1ccccc1C(NC(=O)C1CCN(CCCN2C(=O)CC3CCCCC3C2=O)CC1)c1ccccn1 (stereo not shown) [CBK147940] | 120.15
Cn1c(SCC(=O)O)nnc1-c1cc(Br)ccc1O [CBK269150] | 84.8178
Cc1cc2c(cc1C)C(O)CC1(CCN(CC(=O)NC3CCCCC3)CC1)O2 (stereo not shown) [CBK286399] | 106.87
COc1ccc(CN2CC(C(=O)O)CC2=O)cc1 (stereo not shown) [CBK267242] | 133.67
O=C(Cc1cccc(F)c1)N1CCOCC1 [CBK058928] | 114.004
Cc1csc(NS(=O)(=O)CC(C)C)n1 [CBK021434] | 165.556
Cn1ccnc1CN1C[C@@H]2CCCN2C[C@@H]1Cc1ccccc1 [CBK283202] | 143.393
CN(C)S(=O)(=O)c1cccc(C(=O)N(Cc2ccc(F)cc2)Cc2ccco2)c1 [CBK267579] | 119.326
CCOC(=O)CCCCSc1c(CC)c(C)nc2ccccc12 [CBK153458T] | 101.216
O=C(NCCOc1ccc(F)cc1)c1cccc(-n2cccn2)c1 [CBK281596] | 128.184
CC(=O)N(CN1C(=O)CCC1=O)C(CC(C)C)C(=O)O (stereo not shown) [CBK286553] | 111.602
O=C(c1cccc(-c2ccc(F)cc2)c1)N1CC(O)C1 [CBK281499] | 115.195
O=C(CSc1nnc(Cc2ccccc2)o1)N1c2ccccc2Sc2ccccc21 [CBK268008] | 114.287
CCOC(=O)C1CCN(S(=O)(=O)c2ccccc2)CC1 [CBK051091] | 115.564
CCn1cc(S(=O)(=O)NC2(c3ccccc3)CCCC2)cn1 [CBK282767] | 128.709
CCCc1[nH]nc(O)c1CCc1ccccc1C(F)(F)F [CBK075081] | 82.2908
Cc1ccccc1-c1ccccc1CC1(C(=O)N(C)C)CCN(C(=O)C2CCCCC2)CC1 [CBK285718] | 98.2945
CCCCn1c(SC(C)C(N)=O)nc2cc(C(=O)OC)ccc2c1=O (stereo not shown) [CBK305877] | 113.223
COc1cccc(NCc2nnc(SCC(=O)O)n2C2CCCCC2)c1 [CBK297499] | 97.1473
CCn1cc(C(=O)NN)c(=O)c2cc(F)c(N3CCSCC3)cc21 [CBK307148] | 107.01
Nc1nnc(CSc2cccc3cccnc23)o1 [CBK021397] | 134.97

Exported as a markdown table: entries from further up.

| Structure (SMILES) | % of control remaining [%] |
| --- | --- |
| CN(C)S(=O)(=O)c1cccc(C(=O)N(Cc2ccc(F)cc2)Cc2ccco2)c1 [CBK267579] | 119.326 |
| CCOC(=O)CCCCSc1c(CC)c(C)nc2ccccc12 [CBK153458T] | 101.216 |
| O=C(NCCOc1ccc(F)cc1)c1cccc(-n2cccn2)c1 [CBK281596] | 128.184 |
| CC(=O)N(CN1C(=O)CCC1=O)C(CC(C)C)C(=O)O (stereo not shown) [CBK286553] | 111.602 |
